# From publication PMC7969623
# Sequences of proteins named here, by UniProt entry; tags and fusion partners are left off.
# UniProt O55143: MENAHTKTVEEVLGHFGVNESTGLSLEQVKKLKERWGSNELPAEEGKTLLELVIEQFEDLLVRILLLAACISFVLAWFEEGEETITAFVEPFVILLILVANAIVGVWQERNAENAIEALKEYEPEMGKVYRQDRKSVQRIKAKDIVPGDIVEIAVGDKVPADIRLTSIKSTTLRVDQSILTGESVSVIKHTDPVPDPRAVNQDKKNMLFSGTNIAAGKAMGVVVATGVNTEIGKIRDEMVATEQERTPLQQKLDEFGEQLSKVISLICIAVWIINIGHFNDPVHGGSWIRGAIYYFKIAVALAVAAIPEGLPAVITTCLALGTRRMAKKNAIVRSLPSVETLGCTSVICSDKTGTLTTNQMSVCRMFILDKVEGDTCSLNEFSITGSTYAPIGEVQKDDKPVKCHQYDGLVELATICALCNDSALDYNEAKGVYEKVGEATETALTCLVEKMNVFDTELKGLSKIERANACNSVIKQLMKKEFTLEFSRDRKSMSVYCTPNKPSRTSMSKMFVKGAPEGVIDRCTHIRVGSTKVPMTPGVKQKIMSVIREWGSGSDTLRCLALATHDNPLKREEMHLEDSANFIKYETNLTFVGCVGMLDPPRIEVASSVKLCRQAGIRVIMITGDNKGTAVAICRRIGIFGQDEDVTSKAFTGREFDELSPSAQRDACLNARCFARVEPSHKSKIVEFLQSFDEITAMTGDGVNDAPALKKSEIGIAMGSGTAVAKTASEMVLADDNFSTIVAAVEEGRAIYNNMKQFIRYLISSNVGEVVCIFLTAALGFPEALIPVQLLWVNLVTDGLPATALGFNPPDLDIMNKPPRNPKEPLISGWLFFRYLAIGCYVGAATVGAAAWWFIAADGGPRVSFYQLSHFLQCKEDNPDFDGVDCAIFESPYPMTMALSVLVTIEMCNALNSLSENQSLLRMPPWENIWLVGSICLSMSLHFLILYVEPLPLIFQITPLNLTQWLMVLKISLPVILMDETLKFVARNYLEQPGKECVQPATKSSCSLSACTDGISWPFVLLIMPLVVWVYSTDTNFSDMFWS
# UniProt G5E829: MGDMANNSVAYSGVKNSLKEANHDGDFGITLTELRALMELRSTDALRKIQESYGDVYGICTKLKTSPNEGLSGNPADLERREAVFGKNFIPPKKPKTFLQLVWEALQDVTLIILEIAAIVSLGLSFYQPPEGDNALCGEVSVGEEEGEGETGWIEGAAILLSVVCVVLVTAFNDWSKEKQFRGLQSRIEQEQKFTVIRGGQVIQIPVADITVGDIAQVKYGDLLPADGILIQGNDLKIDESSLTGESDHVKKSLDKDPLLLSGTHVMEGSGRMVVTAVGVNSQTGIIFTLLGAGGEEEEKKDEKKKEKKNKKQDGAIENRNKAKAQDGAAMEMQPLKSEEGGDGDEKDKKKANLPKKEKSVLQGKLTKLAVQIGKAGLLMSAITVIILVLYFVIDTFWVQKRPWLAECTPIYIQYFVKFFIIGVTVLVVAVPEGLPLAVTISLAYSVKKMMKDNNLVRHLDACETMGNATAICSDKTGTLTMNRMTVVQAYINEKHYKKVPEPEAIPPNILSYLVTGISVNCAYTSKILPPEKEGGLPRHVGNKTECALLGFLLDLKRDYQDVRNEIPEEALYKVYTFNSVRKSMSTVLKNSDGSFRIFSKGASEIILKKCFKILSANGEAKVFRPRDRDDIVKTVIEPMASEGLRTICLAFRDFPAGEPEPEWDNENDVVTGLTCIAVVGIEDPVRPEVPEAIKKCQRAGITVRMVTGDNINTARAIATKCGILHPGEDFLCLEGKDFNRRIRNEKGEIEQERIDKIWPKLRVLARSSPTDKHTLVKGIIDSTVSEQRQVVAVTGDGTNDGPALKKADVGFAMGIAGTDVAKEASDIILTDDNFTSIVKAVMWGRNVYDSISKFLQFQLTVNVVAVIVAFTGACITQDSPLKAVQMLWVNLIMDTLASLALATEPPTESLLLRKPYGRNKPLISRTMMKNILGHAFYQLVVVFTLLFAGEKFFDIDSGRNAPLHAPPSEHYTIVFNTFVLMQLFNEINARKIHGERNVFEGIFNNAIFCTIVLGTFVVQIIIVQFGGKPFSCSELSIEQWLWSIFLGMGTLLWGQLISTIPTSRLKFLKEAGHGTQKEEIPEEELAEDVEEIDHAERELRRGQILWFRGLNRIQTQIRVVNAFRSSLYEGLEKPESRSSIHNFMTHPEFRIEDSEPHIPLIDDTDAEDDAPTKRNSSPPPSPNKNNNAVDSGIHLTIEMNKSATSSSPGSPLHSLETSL
# UniProt Q9EPL8: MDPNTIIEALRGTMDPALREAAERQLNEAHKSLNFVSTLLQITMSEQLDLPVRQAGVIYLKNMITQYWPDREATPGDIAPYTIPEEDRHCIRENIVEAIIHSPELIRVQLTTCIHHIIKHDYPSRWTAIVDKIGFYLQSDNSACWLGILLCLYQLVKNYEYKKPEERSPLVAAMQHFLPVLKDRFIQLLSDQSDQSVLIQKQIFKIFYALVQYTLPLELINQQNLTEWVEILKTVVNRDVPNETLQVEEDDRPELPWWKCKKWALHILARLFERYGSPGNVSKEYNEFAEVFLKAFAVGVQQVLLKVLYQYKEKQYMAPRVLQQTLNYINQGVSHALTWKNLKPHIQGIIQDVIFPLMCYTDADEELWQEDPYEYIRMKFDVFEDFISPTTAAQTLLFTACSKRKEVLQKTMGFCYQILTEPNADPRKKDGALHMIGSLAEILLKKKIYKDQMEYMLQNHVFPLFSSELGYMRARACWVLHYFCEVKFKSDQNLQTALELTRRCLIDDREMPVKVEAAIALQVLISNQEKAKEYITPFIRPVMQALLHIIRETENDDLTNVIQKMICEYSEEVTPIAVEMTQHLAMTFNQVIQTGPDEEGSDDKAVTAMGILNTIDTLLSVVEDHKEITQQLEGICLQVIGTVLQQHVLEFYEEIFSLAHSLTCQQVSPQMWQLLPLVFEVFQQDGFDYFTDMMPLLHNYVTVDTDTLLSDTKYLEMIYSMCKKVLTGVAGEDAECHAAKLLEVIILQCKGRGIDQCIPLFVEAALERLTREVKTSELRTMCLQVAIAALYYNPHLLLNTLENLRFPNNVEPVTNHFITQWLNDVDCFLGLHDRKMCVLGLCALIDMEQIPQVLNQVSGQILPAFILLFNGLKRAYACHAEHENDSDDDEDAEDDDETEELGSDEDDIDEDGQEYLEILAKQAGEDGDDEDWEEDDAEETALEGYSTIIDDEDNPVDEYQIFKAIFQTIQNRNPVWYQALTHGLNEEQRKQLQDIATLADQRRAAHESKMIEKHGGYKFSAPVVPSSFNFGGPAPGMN
# UniProt Q6P5F9: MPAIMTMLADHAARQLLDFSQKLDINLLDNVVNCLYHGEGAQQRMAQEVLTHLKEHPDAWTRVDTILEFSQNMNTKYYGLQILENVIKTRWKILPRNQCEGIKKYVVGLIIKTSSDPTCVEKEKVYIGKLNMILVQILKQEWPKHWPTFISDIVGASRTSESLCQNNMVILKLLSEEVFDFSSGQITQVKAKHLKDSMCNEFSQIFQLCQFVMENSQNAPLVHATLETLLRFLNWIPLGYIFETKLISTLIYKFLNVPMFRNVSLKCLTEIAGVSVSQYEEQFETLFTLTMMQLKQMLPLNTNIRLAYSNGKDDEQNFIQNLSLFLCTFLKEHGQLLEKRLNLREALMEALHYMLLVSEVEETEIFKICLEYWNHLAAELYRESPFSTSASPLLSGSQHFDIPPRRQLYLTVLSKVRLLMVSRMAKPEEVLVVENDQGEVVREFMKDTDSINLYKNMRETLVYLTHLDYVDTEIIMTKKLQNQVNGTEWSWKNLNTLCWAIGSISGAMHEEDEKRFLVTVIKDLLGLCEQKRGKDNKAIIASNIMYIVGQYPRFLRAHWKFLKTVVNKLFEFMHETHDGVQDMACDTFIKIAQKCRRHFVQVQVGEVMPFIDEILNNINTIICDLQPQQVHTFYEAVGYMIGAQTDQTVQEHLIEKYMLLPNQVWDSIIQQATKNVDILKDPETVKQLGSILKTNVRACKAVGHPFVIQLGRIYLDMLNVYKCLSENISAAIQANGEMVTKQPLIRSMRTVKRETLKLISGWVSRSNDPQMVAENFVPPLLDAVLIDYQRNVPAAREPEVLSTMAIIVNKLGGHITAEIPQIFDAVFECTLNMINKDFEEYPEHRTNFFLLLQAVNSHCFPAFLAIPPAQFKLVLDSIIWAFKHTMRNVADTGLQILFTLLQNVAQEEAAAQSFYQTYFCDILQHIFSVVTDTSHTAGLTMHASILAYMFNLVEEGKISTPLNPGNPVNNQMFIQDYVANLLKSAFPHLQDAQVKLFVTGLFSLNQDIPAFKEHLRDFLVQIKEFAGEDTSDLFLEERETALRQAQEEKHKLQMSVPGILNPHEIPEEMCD
# UniProt Q7TSJ2: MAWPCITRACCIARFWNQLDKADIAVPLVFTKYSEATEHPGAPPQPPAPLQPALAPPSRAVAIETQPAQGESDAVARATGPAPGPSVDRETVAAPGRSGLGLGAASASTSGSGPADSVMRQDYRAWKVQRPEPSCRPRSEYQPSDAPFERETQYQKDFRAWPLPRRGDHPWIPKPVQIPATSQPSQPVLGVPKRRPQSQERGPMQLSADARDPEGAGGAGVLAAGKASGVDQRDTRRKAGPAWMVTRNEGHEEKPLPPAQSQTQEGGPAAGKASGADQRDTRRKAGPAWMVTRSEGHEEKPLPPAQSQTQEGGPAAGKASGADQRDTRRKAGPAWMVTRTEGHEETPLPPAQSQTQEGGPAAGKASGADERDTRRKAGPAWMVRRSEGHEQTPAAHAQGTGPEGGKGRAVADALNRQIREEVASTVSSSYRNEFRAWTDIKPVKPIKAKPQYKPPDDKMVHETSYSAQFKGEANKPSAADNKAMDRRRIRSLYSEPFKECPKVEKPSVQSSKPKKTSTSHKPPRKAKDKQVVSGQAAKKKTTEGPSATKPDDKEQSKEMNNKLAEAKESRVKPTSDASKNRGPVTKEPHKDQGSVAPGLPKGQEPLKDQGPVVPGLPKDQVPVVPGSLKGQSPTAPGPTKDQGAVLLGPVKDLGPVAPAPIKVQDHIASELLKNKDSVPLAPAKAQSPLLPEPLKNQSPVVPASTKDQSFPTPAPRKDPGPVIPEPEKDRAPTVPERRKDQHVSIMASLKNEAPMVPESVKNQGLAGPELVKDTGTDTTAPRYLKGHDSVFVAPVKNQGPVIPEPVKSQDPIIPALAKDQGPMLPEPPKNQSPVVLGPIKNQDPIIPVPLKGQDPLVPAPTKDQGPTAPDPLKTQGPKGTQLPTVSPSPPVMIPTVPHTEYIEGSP
# UniProt P17426: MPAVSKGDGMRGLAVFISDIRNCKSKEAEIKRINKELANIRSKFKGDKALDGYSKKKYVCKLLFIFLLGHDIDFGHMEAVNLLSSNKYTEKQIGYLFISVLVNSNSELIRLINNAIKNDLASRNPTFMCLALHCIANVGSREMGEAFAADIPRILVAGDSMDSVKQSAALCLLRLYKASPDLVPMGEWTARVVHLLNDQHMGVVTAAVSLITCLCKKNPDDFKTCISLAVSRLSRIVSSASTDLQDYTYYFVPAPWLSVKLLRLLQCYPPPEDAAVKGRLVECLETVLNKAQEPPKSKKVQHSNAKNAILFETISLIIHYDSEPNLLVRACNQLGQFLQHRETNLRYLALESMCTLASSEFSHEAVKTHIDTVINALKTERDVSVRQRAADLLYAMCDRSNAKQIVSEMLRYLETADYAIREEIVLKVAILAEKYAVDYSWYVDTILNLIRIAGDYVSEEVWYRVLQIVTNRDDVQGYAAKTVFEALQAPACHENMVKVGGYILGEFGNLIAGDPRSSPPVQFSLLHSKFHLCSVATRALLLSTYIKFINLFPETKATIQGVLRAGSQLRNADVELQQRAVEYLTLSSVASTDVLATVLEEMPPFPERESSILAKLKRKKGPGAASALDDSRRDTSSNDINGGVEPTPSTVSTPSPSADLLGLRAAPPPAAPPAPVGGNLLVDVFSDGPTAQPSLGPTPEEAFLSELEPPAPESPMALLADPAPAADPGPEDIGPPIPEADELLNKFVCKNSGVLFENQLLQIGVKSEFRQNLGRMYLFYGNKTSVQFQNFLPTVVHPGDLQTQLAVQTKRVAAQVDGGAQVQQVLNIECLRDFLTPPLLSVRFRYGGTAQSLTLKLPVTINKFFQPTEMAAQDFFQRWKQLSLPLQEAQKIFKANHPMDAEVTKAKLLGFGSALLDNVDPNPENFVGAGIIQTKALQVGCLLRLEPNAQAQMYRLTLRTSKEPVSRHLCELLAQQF
# These are yes or no findings as the source states them, for the method shown. In cells and extracts the contact can be indirect. These calls come from enrichment with a bait or labelling near it, and not all partners need be listed. Sequences can lack the tags named with a protein.
# T1: PRRT2-HA (full length PRoline Rich Transmembrane protein 2 with HA tag fused at C terminus) (UniProt E9PUL5)
# T1 sequence: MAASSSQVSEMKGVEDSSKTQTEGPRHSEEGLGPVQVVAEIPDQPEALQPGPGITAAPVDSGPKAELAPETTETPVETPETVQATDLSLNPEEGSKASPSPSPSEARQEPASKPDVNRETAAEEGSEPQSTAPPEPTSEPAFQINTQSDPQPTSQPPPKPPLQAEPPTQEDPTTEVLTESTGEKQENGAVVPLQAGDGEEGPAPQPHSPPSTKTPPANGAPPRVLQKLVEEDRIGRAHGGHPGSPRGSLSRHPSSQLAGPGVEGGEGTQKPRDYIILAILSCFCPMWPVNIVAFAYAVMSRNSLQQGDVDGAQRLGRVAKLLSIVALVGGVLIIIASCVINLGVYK
# Target: T1, PRRT2-HA (full length PRoline Rich Transmembrane protein 2 with HA tag fused at C terminus)
# Assay: affinity purification with mass spectrometry; PRRT2-HA or BAP-HA from COS-7 held on anti-HA agarose, washed, incubated overnight at 4 °C with total mouse brain extract in lysis buffer (1% Triton X-100, 150 mM NaCl, 50 mM Tris-HCl pH 7.4, 1 mM EDTA); eluted with HA peptide; bands between 95 and 130 kDa cut from the Coomassie gel, LC-MS/MS; only the target purified
row,Molecule,binding
1,Sarcoplasmic/endoplasmic reticulum calcium ATPase 2 (from UniProt O55143 1-1044),binds
2,Plasma membrane calcium-transporting ATPase 1 (from UniProt G5E829 1-1220),binds
3,Importin-7 (from UniProt Q9EPL8 1-1038),binds
4,Importin-9 (from UniProt Q91YE6 1-1041),binds
5,Exportin-1 (from UniProt Q6P5F9 1-1071),binds
6,"Cullin-associated NEDD8-dissociated protein 1 (protein, UniProt Q6ZQ38 1-1230) MASASYHISNLLEKMTSSDKDFRFMATNDLMTELQKDSIKLDDDSERKVVKMILRLLEDKNGEVQNLAVKCLGPLVSKVKEYQVETIVDTLCTNMLSDKEQLRDISSIGLKTVIGELPPASSGSALAANVCKKITGRLTSAIAKQEDVSVQLEALDIMADMLSRQGGLLVNFHPSILTCLLPQLTSPRLAVRKRTIIALGHLVMSCGNIVFVDLIEHLLSELSKNDSMSTTRTYIQCIAAISRQAGHRIGEYLEKIIPLVVKFCNVDDDELREYCIQAFESFVRRCPKEVYPHVSTIINICLKYLTYDPNYNYDDEDEDENAMDADGGDDDDQGSDDEYSDDDDMSWKVRRAAAKCLDAVVSTRHEMLPEFYKTVSPALIARFKEREENVKADVFHAYLSLLKQTRPVQSWLCDPDAMEQGDTPLTMLQSQVPNIVKALHKQMKEKSVKTRQCCFNMLTELVNVLPGALTQHIPVLVPGIIFSLNDKSSSSNLKIDALSCLYVILCNHSPQVFHPHVQALVPPVVACVGDPFYKITSEALLVTQQLVKVIRPLDQPSSFDATPYIKDLFTCTIKRLKAADIDQEVKERAISCMGQIICNLGDNLGPDLSNTLQIFLERLKNEITRLTTVKALTLIAGSPLKIDLRPVLGEGVPILASFLRKNQRALKLGTLSALDILIKNYSDSLTAAMIDAVLDELPPLISESDMHVSQMAISFLTTLAKVYPSSLSKISGSILNELIGLVRSPLLQGGALSAMLDFFQALVVTGTNNLGYMDLLRMLTGPVYSQSTALTHKQSYYSIAKCVAALTRACPKEGPAVVGQFIQDVKNSRSTDSIRLLALLSLGEVGHHIDLSGQLELKSVILEAFSSPSEEVKSAASYALGSISVGNLPEYLPFVLQEITSQPKRQYLLLHSLKEIISSASVAGLKPYVENIWALLLKHCECAEEGTRNVVAECLGKLTLIDPETLLPRLKGYLISGSSYARSSVVTAVKFTISDHPQPIDPLLKNCIGDFLKTLEDPDLNVRRVALVTFNSAAHNKPSLIRDLLDSVLPHLYNETKVRKELIREVEMGPFKHTVDDGLDIRKAAFECMYTLLDSCLDRLDIFEFLNHVEDGLKDHYDIKMLTFLMLVRLSTLCPSAVLQRLDRLVEPLRATCTTKVKANSVKQEFEKQDELKRSAMRAVAALLTIPEAEKSPLMSEFQSQISSNPELAAIFESIQKDSSSTNLESMDTS",binds
7,"Exportin-7 (protein, UniProt Q9EPK7 1-1087) MADHVQSLAQLENLCKQLYETTDTTTRLQAEKALVEFTNSPDCLSKCQLLLERGSSSYSQLLAATCLTKLVSRTNNPLPLEQRIDIRNYVLNYLATRPKLATFVTQALIQLYARITKLGWFDCQKDDYVFRNAITDVTRFLQDSVEYCIIGVTILSQLTNEINQADTTHPLTKHRKIASSFRDSSLFDIFTLSCNLLKQASGKNLNLNDESQHGLLMQLLKLTHNCLNFDFIGTSTDESSDDLCTVQIPTSWRSAFLDSSTLQLFFDLYHSIPPSFSPLVLSCLVQIASVRRSLFNNAERAKFLSHLVDGVKRILENPQSLSDPNNYHEFCRLLARLKSNYQLGELVKVENYPDVIRLIANFTVTSLQHWEFAPNSVHYLLSLWQRLAASVPYVKATEPHMLETYTPEVTKAYITSRLESVHIILRDGLEDPLEDTGLVQQQLDQLSTIGRCEYEKTCALLVQLFDQSAQSYQELLQSASASPMDIAVQEGRLTWLVYIIGAVIGGRVSFASTDEQDAMDGELVCRVLQLMNLTDSRLAQAGNEKLELAMLSFFEQFRKIYIGDQVQKSSKLYRRLSEVLGLNDETMVLSVFIGKVITNLKYWGRCEPITSKTLQLLNDLSIGYSSVRKLVKLSAVQFMLNNHTSEHFSFLGINNQSNLTDMRCRTTFYTALGRLLMVDLGEDEDQYEQFMLPLTAAFEAVAQMFSTNSFNEQEAKRTLVGLVRDLRGIAFAFNAKTSFMMLFEWIYPSYMPILQRAIELWYHDPACTTPVLKLMAELVHNRSQRLQFDVSSPNGILLFRETSKMITMYGNRILTLGEVPKDQVYALKLKGISICFSMLKAALSGSYVNFGVFRLYGDDALENALQTFIKLLLSIPHSDLLDYPKLSQSYYSLLEVLTQDHMNFIASLEPHVIMYILSSISEGLTALDTMVCTGCCSCLDHIVTYLFKQLSRSTKKRTTPLNRESDCFLHIMQQHPAMIQQMLSTVLNIIIFEDCRNQWSMSRPLLGLILLNEKYFSDLRNSIVNSQPPEKQQAMHLCFENLMEGIERNLLTKNRDRFTQNLSAFRREVNDSMKNSTYGVNSNDMMS",binds

# Next, values leading:
row,binding,Molecule
1,binds,Microtubule-associated protein 6 (from UniProt Q7TSJ2 1-906)
2,binds,AP-2 complex subunit alpha-1 (from UniProt P17426 1-977)
3,binds,"Splicing factor 3B subunit 1 (protein, UniProt Q99NB9 1-1304) MAKIAKTHEDIEAQIREIQGKKAALDEAQGVGLDSTGYYDQEIYGGSDSRFAGYVTSIAATELEDDDDDYSSSTSLLGQKKPGYHAPVALLNDIPQSTEQYDPFAEHRPPKIADREDEYKKHRRTMIISPERLDPFADGGKTPDPKMNARTYMDVMREQHLTKEEREIRQQLAEKAKAGELKVVNGAAASQPPSKRKRRWDQTADQTPGATPKKLSSWDQAETPGHTPSLRWDETPGRAKGSETPGATPGSKIWDPTPSHTPAGAATPGRGDTPGHATPGHGGATSSARKNRWDETPKTERDTPGHGSGWAETPRTDRGGDSIGETPTPGASKRKSRWDETPASQMGGSTPVLTPGKTPIGTPAMNMATPTPGHIMSMTPEQLQAWRWEREIDERNRPLSDEELDAMFPEGYKVLPPPAGYVPIRTPARKLTATPTPLGGMTGFHMQTEDRTMKSVNDQPSGNLPFLKPDDIQYFDKLLVDVDESTLSPEEQKERKIMKLLLKIKNGTPPMRKAALRQITDKAREFGAGPLFNQILPLLMSPTLEDQERHLLVKVIDRILYKLDDLVRPYVHKILVVIEPLLIDEDYYARVEGREIISNLAKAAGLATMISTMRPDIDNMDEYVRNTTARAFAVVASALGIPSLLPFLKAVCKSKKSWQARHTGIKIVQQIAILMGCAILPHLRSLVEIIEHGLVDEQQKVRTISALAIAALAEAATPYGIESFDSVLKPLWKGIRQHRGKGLAAFLKAIGYLIPLMDAEYANYYTREVMLILIREFQSPDEEMKKIVLKVVKQCCGTDGVEANYIKTEILPPFFKHFWQHRMALDRRNYRQLVDTTVELANKVGAAEIISRIVDDLKDEAEQYRKMVMETIEKIMGNLGAADIDHKLEEQLIDGILYAFQEQTTEDSVMLNGFGTVVNALGKRVKPYLPQICGTVLWRLNNKSAKVRQQAADLISRTAVVMKTCQEEKLMGHLGVVLYEYLGEEYPEVLGSILGALKAIVNVIGMHKMTPPIKDLLPRLTPILKNRHEKVQENCIDLVGRIADRGAEYVSAREWMRICFELLELLKAHKKAIRRATVNTFGYIAKAIGPHDVLATLLNNLKVQERQNRVCTTVAIAIVAETCSPFTVLPALMNEYRVPELNVQNGVLKSLSFLFEYIGEMGKDYIYAVTPLLEDALMDRDLVHRQTASAVVQHMSLGVYGFGCEDSLNHLLNYVWPNVFETSPHVIQAVMGALEGLRVAIGPCRMLQYCLQGLFHPARKVRDVYWKIYNSIYIGSQDALIAHYPRIYNDDKNTYIRYDLDYIL"
4,binds,"Importin-5 (protein, UniProt Q8BKC5 1-1097) MAAAAAEQQQFYLLLGNLLSPDNVVRKQAEETYENIPGRSKITFLLQAIRNTTAAEEARQMAAVLLRRLLSSAFDEVYPALPSDVQTAIKSELLMIIQMETQSSMRKKICDIAAELARNLIDEDGNNQWPEGLKFLFDSVSSQNMGLREAALHIFWNFPGIFGNQQQHYLDVIKRMLVQCMQDQEHPSIRTLSARATAAFILANEHNVALFKHFADLLPGFLQAVNDSCYQNDDSVLKSLVEIADTVPKYLRPHLEATLQLSLKLCGDTNLNNMQRQLALEVIVTLSETAAAMLRKHTSLIAQTIPQMLAMMVDLEEDEDWANADELEDDDFDSNAVAGESALDRMACGLGGKLVLPMIKEHIMQMLQNPDWKYRHAGLMALSAIGEGCHQQMEGILNEIVNFVLLFLQDPHPRVRYAACNAVGQMATDFAPGFQKKFHEKVIAALLQTMEDQGNQRVQAHAAAALINFTEDCPKSLLIPYLDNLVKHLHSIMVLKLQELIQKGTKLVLEQVVTSIASVADTAEEKFVPYYDLFMPSLKHIVENAVQKELRLLRGKTIECISLIGLAVGKEKFMQDASDVMQLLLKTQTDFNDMEDDDPQISYMISAWARMCKILGKEFQQYLPVVMGPLMKTASIKPEVALLDTQDMENMSDDDGWEFVNLGDQQSFGIKTAGLEEKSTACQMLVCYAKELKEGFVEYTEQVVKLMVPLLKFYFHDGVRVAAAESMPLLLECARVRGPEYLTQMWHFMCDALIKAIGTEPDSDVLSEIMHSFAKCIEVMGDGCLNNEHFEELGGILKAKLEEHFKNQELRQVKRQDEDYDEQVEESLQDEDDNDVYILTKVSDILHSIFSSYKEKVLPWFEQLLPLIVNLICPQRPWPDRQWGLCIFDDIVEHCSPASFKYAEYFISPMLQYVCDNSPEVRQAAAYGLGVMAQFGGDNYRPFCTDALPLLVRVIQAPEAKTKENVNATENCISAVGKIMKFKPDCVNVEEVLPHWLSWLPLHEDKEEAVQTFSYLCDLIESNHPIVLGPNNTNLPKIFSIIAEGEMHEAIKHEDPCAKRLANVVRQVQTSGGLWTECIAQLSPEQQAAIQELLNSA"
